Measured values taken from US7059206B1 (priority 1999, dated 2006).

Columns and labels:
[1] = Percentage availability of metals to the passive sampler, urban river water; details: relative to uptake of free ion
[2] = Electro-availability of metals at a naked mercury drop electrode, urban river water
[3] = Nafion coated cellulose membrane

Row | Structure (SMILES) | Percentage availability of metals to the passive sampler [1, 3] [%] | Percentage availability of metals to the passive sampler ([1]; Uncoated cellulose membrane) [%] | Electroavailability [2] [%]
1 | [Cd] [Cadmium] | 0.03 | 0.05 | 17
2 | [Cu] [Copper] | 1 | 20 | 12
3 | [Zn] [Zinc] | 8 | 20 | 21
